Source: patent US20040219607A1, “Ligand screening and design by X-ray crystallography” (priority 1998, published 2004)
Some entries share one result that the patent states for a list of compounds.

Legend:
μUK = μUK (Homo sapiens, UniProt P00749, C299A/N322Q); conditions: crystal soaked in mixture of 6 to 7 compounds, 3.3 to 5.2 mM each; compound 31 soaked individually
VanX = VanX (Enterococcus faecium, UniProt Q06241); experiment: CrystaLEAD crystallographic screening of VanX crystals; conditions: crystals soaked in mixtures of 7-10 compounds

Compound	binding at the urokinase active site seen in Fo-Fc electron density map (μUK)	other results
Nc1ccc(N)cc1 [Compound 7]	did not produce any hits	–
CCN(CC)c1ccc(N)cc1 [Compound 8]	did not produce any hits	–
Nc1ccc2c(c1)OCCO2 [Compound 9]	did not produce any hits	–
COc1ccc(N)cc1 [Compound 10]	did not produce any hits	–
Nc1ccc(O)c(C(=O)O)c1 [Compound 11]	did not produce any hits	–
Nc1ccc(Br)cn1 [Compound 12]	did not produce any hits	–
Nc1ccc(N)c(C(F)(F)F)c1 [Compound 13]	did not produce any hits	–
O=C(O)C1CCCC1 [Compound 36]	–	binding at the VanX active site seen in electron density map (VanX; listed as compound 36): hits
O=C(O)CCC1CCCC1 [Compound 37]	–	binding at the VanX active site seen in electron density map (VanX; listed as compound 37): hits
O=C(O)C1=CCCC1 [Compound 38]	–	binding at the VanX active site seen in electron density map (VanX): hits
O=C(O)C(=O)CS [Compound 39]	–	binding at the VanX active site seen in electron density map (VanX; listed as compound 39): hits
C[C@H](N)C(=O)O [Compound 40]	–	binding at the VanX active site seen in electron density map (VanX): hits
N[C@@H](CS)C(=O)O [Compound 41]	–	binding at the VanX active site seen in electron density map (VanX; listed as compound 41): hits
